In the data set the target is T1, YvmB-His6 (PchR) (UniProt P40762).
T1 sequence (looked up, limits assumed): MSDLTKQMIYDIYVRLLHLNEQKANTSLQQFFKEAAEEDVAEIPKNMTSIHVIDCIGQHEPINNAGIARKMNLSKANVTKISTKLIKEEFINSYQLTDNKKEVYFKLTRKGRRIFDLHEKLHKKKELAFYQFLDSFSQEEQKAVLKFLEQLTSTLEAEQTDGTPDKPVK
Description: EMSA. Particulars: three complexes; EMSA: 1x = 20 mM Tris pH 8, 100 mM KCl, 0.5 mM DTT, 5 mM MgCl2, 0.05 mg/ml BSA, 0.05 mg/ml poly(dIdC) (from 5x buffer); 50 ng Cy5 DNA in 20 uL; 20 min at 30 C; recombinant protein; protein details: C-terminal His6; label: 5' Cy5. On the technique in general: Mobility shift assays separate free from complexed probe on a gel.

The exact form of at least one protein or probe is not confirmed. Where a protein sequence is shown, tags need not be part of it.

With “TTCCAAATGTTTTTTAAGATTTTAATAATCATTTTCAATACCCATATCATGATAAATGTTTACTAGTAAACATTAGTCATTTTATCCCTTTTCCTTCCAAACGTCAATATGATCTGTGCCCAAATATTTGAAAATAAATGTAAACATCACATTTTCCACACACTTTTTACACGCATATTCAGCATGACATATCAACAAATAGTCTAAACACCAACAATTGACAACGAAAACAAGAAAACAAGAAAAGATAAAATAAAATTGTTCACCAGTAAACGATTTGTTTTATTGTTTCATCGTAAACTATTATTCCTAAGAAAGAAGGTAGCCT (double strand) [P3 probe (entire yvmB-yvmC intergenic region)]”, the binding result is listed as “binds”.

The values above are taken from publication PMC4992311, “The MarR-like protein PchR (YvmB) regulates expression of genes involved in pulcherriminic acid biosynthesis and in the initiation of sporulation in Bacillus subtilis”.
